# Measurements as given in the supplement of paper PMC9135407.
# Several values for one entry are separate records, joined by “and”; a condition that tells them apart may be missing. Identical values can stand only once. Counter-ions that a name gives are not always drawn. ± gives the standard deviation of the averaged measurements. The list shows a part of the results. Part of the spread comes from offsets between plates or batches.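 Primary human stellate myofibroblasts activated in culture; inactivation shown by regained lipid droplets. Readout: fraction of Hoechst-counted cells exceeding a per-plate Bodipy threshold, duplicate wells, each plate with DMSO negative and nortriptyline positive controls. Hits: control-normalized score beyond the plate's top-tenth-percentile nortriptyline wells, or among its three best wells. Final well concentrations unstated.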
# System: primary human hepatic stellate cells (donor 1)
# Assay: percent Bodipy-positive cells; higher = more lipid droplet accumulation
# Conditions: 48 h
# [1] = library stock concentration: 10 mM
# [2] = library stock concentration: 400 uM
# [3] = library stock concentration: 2 mM
# [4] = library stock concentration: 3.33 mM
# [5] = library stock concentration: 1 mM
# [6] = library stock concentration: 80 uM
smiles,measurement,setting,value
C[N+](C)(C)[C@@H](Cc1c[nH]c(=S)[nH]1)C(=O)[O-] [Ergothioneine],percent Bodipy-positive cells,library stock concentration: 8.7 mM,9.26 ± 1.3%
Cn1cc(C2=C(c3c4n(c5ccccc35)CCC(CN)C4)C(=O)NC2=O)c2ccccc21 (stereo unspecified) [Bisindoylmaleimide X  HCl salt (Ro 31-8425) (10 mM)],percent Bodipy-positive cells,[1],68.3 ± 25%
Cn1cc(C2=C(c3c4n(c5ccccc35)CCC(CN)C4)C(=O)NC2=O)c2ccccc21 (stereo unspecified) [Bisindoylmaleimide X HCl salt (Ro 31-8425) (0.4 mM)],percent Bodipy-positive cells,[2],5.89 ± 1.1%
Cn1cc(C2=C(c3c4n(c5ccccc35)CCC(CN)C4)C(=O)NC2=O)c2ccccc21 (stereo unspecified) [Bisindoylmaleimide X HCl salt (Ro 31-8425) (2 mM)],percent Bodipy-positive cells,[3],13.8 ± 2.5%
O=C1C(=O)c2ccccc2C(O)=C1C1CCC(c2ccc(Cl)cc2)CC1 (stereo unspecified) [Atovaquone],percent Bodipy-positive cells,[4],7.74 ± 0.74%
same,percent Bodipy-positive cells,[1],11.3 ± 3.6%
CC(=O)N[C@@H](C=O)[C@@H](O)[C@H](O)[C@H](O)CO [Acetylglucosamine],percent Bodipy-positive cells,[1],26.8 ± 10%
CCCCC/C=C\C/C=C\C/C=C\C/C=C\CCCC(=O)C(F)(F)F [Arachidonyl Trifluoromethyl Ketone],percent Bodipy-positive cells,[5],8.25 ± 2%
COC1CCN(C(=O)c2cc(Cc3n[nH]c(=O)c4ccccc34)ccc2F)CC1,percent Bodipy-positive cells,[4],11.8 ± 7.5%
same,percent Bodipy-positive cells,[1],37.7 ± 3%
C=C(C)[C@@H](CC=C(C)C)C[C@@]12C[C@@H](CC=C(C)C)C(C)(C)[C@@](CC=C(C)C)(C(=O)C(C(=O)c3ccc(O)c(O)c3)=C1O)C2=O [Garcinol],percent Bodipy-positive cells,[6],43.9 ± 16%
same,percent Bodipy-positive cells,[2],45.7 ± 2.9%
same,percent Bodipy-positive cells,[3],41.6 ± 1.6%
same,percent Bodipy-positive cells,[1],42.4 ± 15%
O=c1[nH]c(=O)c2ccccc2o1,percent Bodipy-positive cells,[1],31.7 ± 15%
O=S1(=O)c2cccc3cccc(c23)N1CCCN1CCN(c2ccc(F)cc2)CC1 [Fananserin],percent Bodipy-positive cells,[1],10.58 ± 0.079%
N=C(NC(=O)c1nc(Cl)c(N)nc1N)Nc1ccccc1 [Phenamil],percent Bodipy-positive cells,library stock concentration: 16.4 mM,98.3 ± 1.1%
"Nc1ccn([C@@H]2O[C@H](CO)[C@@H](O)[C@@H]2O)c(=O)n1 [2(1H)-Pyrimidinone, 4-amino-1-?-D-arabinofuranosyl- [CAS]]",percent Bodipy-positive cells,[1],11.1 ± 1.8%
Nc1ccn([C@@H]2O[C@H](CO)[C@@H](O)[C@@H]2O)c(=O)n1 [Cytosine-1-beta-D-arabinofuranoside hydrochloride],percent Bodipy-positive cells,[1],46.9 ± 20%
Nc1ccn([C@@H]2O[C@H](CO)[C@@H](O)[C@@H]2O)c(=O)n1 [Cytarabine],percent Bodipy-positive cells,[1],12.6 ± 2.8%
Nc1ncnc2c1ncn2C1CCCO1 (stereo unspecified),percent Bodipy-positive cells,[1],8.73% and 7.83%
same,percent Bodipy-positive cells,library stock concentration: 24.4 mM,21.7 ± 6.4%
N#Cc1c(-c2ccccc2)no[n+]1[O-] [Furoxan],percent Bodipy-positive cells,library stock concentration: 26.7 mM,99.2 ± 1.2%
Cc1cc(C)c(S(=O)(=O)n2cc(C)cc2C)c(C)c1,percent Bodipy-positive cells,[4],38.8 ± 15%
same,percent Bodipy-positive cells,[1],40.3 ± 2.1%
COc1ccnc(C[S+]([O-])c2nc3cc(OC(F)F)ccc3[nH]2)c1OC (stereo unspecified) [Pantoprazole],percent Bodipy-positive cells,library stock concentration: 5.2 mM,11.3% and 13.5%
same,percent Bodipy-positive cells,[1],43.1 ± 13%
COc1ccnc(C[S+]([O-])c2nc3cc(OC(F)F)ccc3[nH]2)c1OC (stereo unspecified),percent Bodipy-positive cells,[1],8.36 ± 2.8%
Cc1[nH]c2ccccc2c1CCNCc1ccc(/C=C/C(=O)NO)cc1 [Panobinostat (LBH589)],percent Bodipy-positive cells,[4],67.2 ± 7.7%
same,percent Bodipy-positive cells,[1],88.2 ± 2.7%
Cc1[nH]c(C=C2C(=O)Nc3ccc(S(=O)(=O)N(C)c4cccc(Cl)c4)cc32)c(C)c1C(=O)N1CCN(C)CC1,percent Bodipy-positive cells,[4],99.82 ± 0.25%
same,percent Bodipy-positive cells,[1],99.22 ± 0.44%
CC#CCC(C)[C@@H](O)/C=C/[C@@H]1[C@H]2C/C(=C\CCCC(=O)O)C[C@H]2C[C@H]1O (stereo partly drawn) [5-cis-15(R)-Iloprost],percent Bodipy-positive cells,[5],8.98 ± 2.7%
Cc1ccc(NC(=O)c2ccc(CN3CCN(C)CC3)cc2)cc1Nc1nc(-c2cccnc2)cs1 [Masitinib (AB1010)],percent Bodipy-positive cells,[4],88 ± 2.2%
same,percent Bodipy-positive cells,[1],89.7 ± 3.3%
N[C@@H](Cc1ccc(O)c(I)c1)C(=O)O [3-Iodo-L-tyrosine],percent Bodipy-positive cells,[1],31.4 ± 8%
O=C(O)[C@H]1O[C@@H](Oc2cc3oc(-c4ccccc4)cc(=O)c3c(O)c2O)[C@H](O)[C@@H](O)[C@@H]1O [Baicalin],percent Bodipy-positive cells,[4],16.1 ± 5.8%
same,percent Bodipy-positive cells,[1],13.3 ± 7.9%
Nc1ccc(S(=O)(=O)Nc2ccccn2)cc1 [Sulfapyridine],percent Bodipy-positive cells,,9.66 ± 0.36%
same,percent Bodipy-positive cells,library stock concentration: 8 mM,17.09 ± 0.087%
same,percent Bodipy-positive cells,[1],36.8 ± 16%
CCN1CCC(n2cc(CNc3cc(Cl)c4ncc(C#N)c(Nc5ccc(F)c(Cl)c5)c4c3)nn2)CC1,percent Bodipy-positive cells,[6],19.3 ± 9.2%
same,percent Bodipy-positive cells,[2],17.9 ± 6.1%
same,percent Bodipy-positive cells,[3],27 ± 26%
CO[C@H]1C[C@H](O[C@H]2[C@H](C)[C@@H](O[C@@H]3O[C@H](C)C[C@H](N(C)C)[C@H]3O)[C@@H](C)C[C@@]3(CO3)C(=O)[C@H](C)[C@@H](O)[C@@H](C)[C@@H](C)OC(=O)[C@@H]2C)O[C@@H](C)[C@@H]1O [Oleandomycin phosphate],percent Bodipy-positive cells,,28.2 ± 8.7%
same,percent Bodipy-positive cells,[1],22.8 ± 3%
Nc1ccc(C(=O)Nc2cccc(-c3nc(N4CCOCC4)c4oc5ncccc5c4n3)c2)cn1,percent Bodipy-positive cells,[6],22 ± 12%
same,percent Bodipy-positive cells,[2],18.5% and 33.3%
same,percent Bodipy-positive cells,[3],31.4 ± 1.3%
same,percent Bodipy-positive cells,[4],69.4 ± 4.4%
CN(C)CCCN1c2ccccc2Sc2ccc(Cl)cc21 [Chlorpromazine HCl],percent Bodipy-positive cells,[4],66.7 ± 15%
same,percent Bodipy-positive cells,library stock concentration: 6.3 mM,49.9 ± 5.1%
CN(C)CCCN1c2ccccc2Sc2ccc(Cl)cc21 [Chlorpromazine hydrochloride],percent Bodipy-positive cells,,77.8 ± 11%
same,percent Bodipy-positive cells,[1],97.5 ± 2.2%
CN(C)CCCN1c2ccccc2Sc2ccc(Cl)cc21 [Chlorpromazine],percent Bodipy-positive cells,[1],59.7 ± 3.3%
CN(C)CCCN1c2ccccc2Sc2ccc(Cl)cc21,percent Bodipy-positive cells,[1],97.16 ± 0.7%
CCCCCCCCCCCCCCCCOC[C@H](COP(=O)([O-])OCC[N+](C)(C)C)OC(=O)NC [Methylcarbamyl PAF C-16],percent Bodipy-positive cells,[5],13.5 ± 1.5%
COc1cc2c3cc1Oc1c(OC)c(OC)cc4c1[C@@H](Cc1ccc(OC(=O)c5ccc([N+](=O)[O-])cc5)c(c1)Oc1ccc(cc1)C[C@@H]3N(C)CC2)N(C)CC4 [E6 berbamine],percent Bodipy-positive cells,library stock concentration: 6.6 mM,97.53 ± 0.92%
CCc1cc2c(cc1N1CCC(N3CCOCC3)CC1)C(C)(C)c1[nH]c3cc(C#N)ccc3c1C2=O,percent Bodipy-positive cells,[1],75.4 ± 5.3%
O=c1ccc2ccccc2o1 [Coumarin],percent Bodipy-positive cells,[4],15.4 ± 5.5%
same,percent Bodipy-positive cells,[1],35.6% and 27.6%
COc1cc([C@@H]2c3cc4c(cc3[C@@H](O[C@@H]3O[C@@H]5CO[C@@H](c6cccs6)O[C@H]5[C@H](O)[C@H]3O)[C@H]3COC(=O)[C@H]23)OCO4)cc(OC)c1O [Teniposide],percent Bodipy-positive cells,library stock concentration: 3 mM,23.8 ± 8%
same,percent Bodipy-positive cells,[4],35.7 ± 1.8%
same,percent Bodipy-positive cells,[1],75.3% and 65.1%
O=C(O)c1c(Sc2ccccc2)c2cc(Cl)ccc2n1Cc1ccc(Cl)cc1,percent Bodipy-positive cells,[1],6.73 ± 1.1%
CCOc1ccccc1OC(c1ccccc1)C1CNCCO1 (stereo unspecified) [Reboxetine mesylate],percent Bodipy-positive cells,[4],53 ± 11%
